This data set deals with human IgG1. The data set is described as follows: Proteinase digestion of purified IgG1, Agilent biosizing. The data set is classed as biochemical. The note with it: human IgG1 heavy chain, EU numbering; 1% (w/w) enzyme, pH 7.5, 37° C. As for the experimental part: A purified monoclonal antibody comprising a human IgG heavy chain was contacted with the proteases described and sampling was conducted over various durations of contact. Fragmentation in the samples was evaluated using the Agilent microfluidics “lab-on-a-chip” technology for in vitro biosizing (Goetz H et al. Biochemical and Biophysical Methods 60; 281-293, 2004).
Proteinase digestions of purified IgGs were carried out at pH 7.5 in phosphate-buffered saline (PBS) or, for the metalloproteinases, in Tris-buffered saline buffer at 37° C. Calcium chloride was included in the metalloproteinase reactions at 1 mM for MMP-12 and 10 mM for MMP-3; otherwise no additives were used. Antibody concentrations were typically 1 or 2 mg/mL and reactions were initiated by addition of enzyme to a 1% (w/w) ratio to IgG. […]
The major proteolytic cleavage positions in the IgG1 hinge were identified for enzyme-generated fragments by N-terminal sequencing of the purified Fc fragment (MMP-3 and MMP-12) and/or high resolution mass spectrometric analyses of the purified Fab (neutrophil elastase, plasmin) and F(ab′)2 (cathepsin G, glutamyl endopeptidase and IdeS) fragments. Fragmentation was evaluated using the Agilent microfluidics “lab-on-a-chip” technology.

B1: Macrophage metalloelastase (MMP-12): human metalloendopeptidase (protein, UniProt P39900 106-470, looked up)
Macrophage metalloelastase: GPVWRKHYITYRINNYTPDMNREDVDYAIRKAFQVWSNVTPLKFSKINTGMADILVVFARGAHGDFHAFDGKGGILAHAFGPGSGIGGDAHFDEDEFWTTHSGGTNLFLTAVHEIGHSLGLGHSSDPKAVMFPTYKYVDINTFRLSADDIRGIQSLYGDPKENQRLPNPDNSEPALCDPNLSFDAVTTVGNKIFFFKDRFFWLKVSERPKTSVNLISSLWPTLPSGIEAAYEIEARNQVFLFKDDKYWLISNLRPEPNYPKSIHSFGFPNFVKKIDAAVFNPRFYRTYFFVDNQYWRYDERRQMMDPGYPKLITKNFQGIGPKIDAVFYSKNKYYYFFQGSNQFEYDFLLQRITKTLKSNSWFGC
Take B1: the “Cleaved Site” value is “Pro^232-”.

B2: Plasmin: plasminogen co-incubated with plasminogen activators (protein, UniProt P00747 20-580; P00747 581-810, looked up)
Plasmin heavy chain A: EPLDDYVNTQGASLFSVTKKQLGAGSIEECAAKCEEDEEFTCRAFQYHSKEQQCVIMAENRKSSIIIRMRDVVLFEKKVYLSECKTGNGKNYRGTMSKTKNGITCQKWSSTSPHRPRFSPATHPSEGLEENYCRNPDNDPQGPWCYTTDPEKRYDYCDILECEEECMHCSGENYDGKISKTMSGLECQAWDSQSPHAHGYIPSKFPNKNLKKNYCRNPDRELRPWCFTTDPNKRWELCDIPRCTTPPPSSGPTYQCLKGTGENYRGNVAVTVSGHTCQHWSAQTPHTHNRTPENFPCKNLDENYCRNPDGKRAPWCHTTNSQVRWEYCKIPSCDSSPVSTEQLAPTAPPELTPVVQDCYHGDGQSYRGTSSTTTTGKKCQSWSSMTPHRHQKTPENYPNAGLTMNYCRNPDADKGPWCFTTDPSVRWEYCNLKKCSGTEASVVAPPPVVLLPDVETPSEEDCMFGNGKGYRGKRATTVTGTPCQDWAAQEPHRHSIFTPETNPRAGLEKNYCRNPDGDVGGPWCYTTNPRKLYDYCDVPQCAAPSFDCGKPQVEPKKCPGR
Plasmin light chain B: VVGGCVAHPHSWPWQVSLRTRFGMHFCGGTLISPEWVLTAAHCLEKSPRPSSYKVILGAHQEVNLEPHVQEIEVSRLFLEPTRKDIALLKLSSPAVITDKVIPACLPSPNYVVADRTECFITGWGETQGTFGAGLLKEAQLPVIENKVCNRYEFLNGRVQSTELCAGHLAGGTDSCQGDSGGPLVCFEKDKYILQGVTSWGLGCARPNKPGVYVRVSRFVTWIEGVMRNN
modifications: plasmin
On to B2, for which the “Cleaved Site” value is “Lys^223-”.

The values are drawn from US9481734B2, “Immunoglobulin cleavage fragments and disease indicators and compositions for detecting and binding such” (Janssen Biotech, Inc., priority 2007, dated 2016).
